Hit rate of the full screen: of about 300,000 compounds, about 5,400 (1.8%) were called active. Calls follow the shape of the full dose curve; tested in HEK293 cells. The inconclusive results got no clear call from the source. Potencies of inconclusive entries are doubtful fits and often do not repeat.
Assay: qHTS for inhibitors of binding or entry into cells for Marburg Virus
Settings: Marburg virus pseudotyped entry inhibition, cell reporter; series mostly up to 37.8 µM
Potency is read from the fitted curve at half-maximal effect.

Row | SMILES | Potency
1 | COC(=O)c1sc(-c2ccc(C(C)(C)C)cc2)cc1NC(=O)COCC(=O)O | inconclusive: 35.5 µM [inhibitor, single point]
2 | O=C(O)Cn1cc(/C=c2/sc3nc4ccccc4n3c2=O)c2ccccc21 | inconclusive: 35.5 µM [activator, partial curve, poor fit]
3 | Cc1ccccc1N/N=C/c1sc(=O)n(Cc2cccc(C(=O)O)c2)c1Cl | inconclusive: 31.6 µM [inhibitor, single point]
